Laboratory results from patent US20040038226A1, “Transgenic animal model by mineralocorticoid receptor antisense expression” (priority 2000, published 2004).
At least one structure is not confirmed: it was looked up by name or label, or the drawing left a doubt.

The chains behind the UniProt entries cited, without tags or fusion partners.
UniProt P04483, whole entry, added parts left off: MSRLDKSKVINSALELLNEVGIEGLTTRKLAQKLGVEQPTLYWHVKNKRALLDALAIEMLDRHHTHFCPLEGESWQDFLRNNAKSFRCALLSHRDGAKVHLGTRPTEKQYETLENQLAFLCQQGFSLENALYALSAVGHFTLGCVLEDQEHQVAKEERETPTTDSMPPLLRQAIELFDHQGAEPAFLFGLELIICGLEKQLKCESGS

Experiments:
tTA [1] = target: T1, tTA (Escherichia coli, UniProt P04483); test: X-Gal (LacZ) staining of heart sections of double transgenic mice treated or not with doxycycline; format: in vivo; settings: lines αMHC-tTA/MR 9 and MR 27, doxycycline for eight days
T1 construct: host or cells: cardiac myocytes of alphaMHC-tTA transgenic mice, FVB/N-TgN (MHCA tTA) 6 Smbf, crossed with tetO-mMR antisense/LacZ lines

[2] = tested on: “double transgenic” animals (lines MR 27 and MR 17); test: Blockage of the establishment of the pathological phenotype by continuous doxycycline from birth/gestation; format: in vivo, mice
tTA [3] = target: T1, tTA; test: RNase protection analysis of LacZ and mMR antisense transcripts in double transgenic mice treated or not with doxycycline; format: in vivo

C[C@H]1c2cccc(O)c2C(=O)C2=C(O)[C@]3(O)C(=O)C(C(N)=O)=C(O)[C@@H](N(C)C)[C@@H]3[C@@H](O)[C@@H]21 [doxycycline] was tested, and the “nuclear LacZ staining (expression) in cardiomyocytes” value (tTA [1]) was “practically completely suppressed”, the “increase in the heart weight/body weight ratio” value ([2]; line MR 17, doxycycline from birth for 12 weeks (FIG. 12)) was “averted” and the “death of the double transgenic animals (survival)” value ([2]; lines MR 17 and MR 27, continuous doxycycline from birth) was “prevent the death”. The “expression of RNA (LacZ transcripts) in the heart” value (tTA [3]; double transgenic mice, doxycycline for eight days, RNase protection) was “greatly reduced” and the “expression of the antisense of the murine MR receptor in the heart” value (tTA [3]; mice αMHC-tTA/MR 27 and 9, RNase protection (FIG. 4A)) was “inhibited”.
